According to patent US10377647B2, “Systems and methods for use of water with switchable ionic strength” (Queen's University at Kingson, priority 2010, dated 2019):
Some entries share one result that the patent states for a list of compounds.

Test: Degree of protonation by CO2 in D2O by 1H NMR
Format: physicochemical
Conditions: N2 at 75° C.
Text: The spectrum was then acquired.
This process was repeated.

In the case of `OCCN(CCO)CCN(CCO)CCO` [THEED, N,N,N′,N′-tetrakis(2-hydroxyethyl) ethylenediamine], the “ionic form converted back to non-ionic form” value is reported as > 90%.
